From publication PMC8648109

Chains of the proteins cited; added tags and fusions are not shown. Lines headed by an entry give the natural chain unless they say otherwise; changes in a name come on top. Chains listed by the source or under a name are the forms on record and can include a tag or linker.
UniProt Q9WTL8: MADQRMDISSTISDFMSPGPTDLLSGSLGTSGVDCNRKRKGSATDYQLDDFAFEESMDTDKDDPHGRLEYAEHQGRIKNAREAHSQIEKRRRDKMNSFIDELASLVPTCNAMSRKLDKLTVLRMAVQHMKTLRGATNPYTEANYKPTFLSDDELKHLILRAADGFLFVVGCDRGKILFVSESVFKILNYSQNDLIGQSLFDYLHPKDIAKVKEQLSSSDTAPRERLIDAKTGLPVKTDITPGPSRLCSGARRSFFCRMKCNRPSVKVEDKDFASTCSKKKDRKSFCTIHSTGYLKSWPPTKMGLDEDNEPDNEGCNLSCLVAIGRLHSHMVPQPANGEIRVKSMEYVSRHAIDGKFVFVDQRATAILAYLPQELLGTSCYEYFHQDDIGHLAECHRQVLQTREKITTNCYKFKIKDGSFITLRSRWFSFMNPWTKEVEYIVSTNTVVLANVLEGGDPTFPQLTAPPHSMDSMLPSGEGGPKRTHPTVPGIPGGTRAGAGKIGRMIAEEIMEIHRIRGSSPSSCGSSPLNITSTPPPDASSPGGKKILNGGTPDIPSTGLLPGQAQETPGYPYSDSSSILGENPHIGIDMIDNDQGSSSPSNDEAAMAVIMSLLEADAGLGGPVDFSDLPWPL
BMAL1 (endogenous, mouse fibroblasts) + CLOCK (endogenous, mouse fibroblasts), one chain, as listed by the source: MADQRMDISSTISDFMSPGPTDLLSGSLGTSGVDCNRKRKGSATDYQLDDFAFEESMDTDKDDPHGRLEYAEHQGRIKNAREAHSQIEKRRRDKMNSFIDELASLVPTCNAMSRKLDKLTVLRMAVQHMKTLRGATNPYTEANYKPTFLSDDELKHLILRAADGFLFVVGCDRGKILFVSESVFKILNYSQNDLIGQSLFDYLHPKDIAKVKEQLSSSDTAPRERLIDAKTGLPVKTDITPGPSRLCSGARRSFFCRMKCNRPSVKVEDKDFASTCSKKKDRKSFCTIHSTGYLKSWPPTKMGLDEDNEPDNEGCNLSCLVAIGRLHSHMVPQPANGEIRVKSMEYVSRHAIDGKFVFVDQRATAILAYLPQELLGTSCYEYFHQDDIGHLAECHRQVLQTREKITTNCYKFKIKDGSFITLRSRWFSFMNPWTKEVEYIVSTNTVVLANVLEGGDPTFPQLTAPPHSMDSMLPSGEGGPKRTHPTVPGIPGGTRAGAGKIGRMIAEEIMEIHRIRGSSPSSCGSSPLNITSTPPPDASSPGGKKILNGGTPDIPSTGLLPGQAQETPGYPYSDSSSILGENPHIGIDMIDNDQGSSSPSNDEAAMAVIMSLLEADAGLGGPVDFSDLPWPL

How the values were obtained:
[1] = target: BMAL1 (endogenous, mouse fibroblasts) (mouse) (UniProt Q9WTL8); experiment: EMSA; details: Clock-deficient fibroblast extract; 20 ug total cell extract, 32P-labeled duplex, room temperature 20 min; antibody 1 ug in 10 ul EMSA reaction buffer on ice 30 min for supershift; protein in an extract; label: 32P (probe), unlabeled as competitor
[2] = target: T1, CLOCK (endogenous, mouse fibroblasts) (mouse) (UniProt O08785); experiment: EMSA; details: Bmal1-deficient fibroblast extract; 20 ug total cell extract, 32P-labeled duplex, room temperature 20 min; antibody 1 ug in 10 ul EMSA reaction buffer on ice 30 min for supershift; protein in an extract; label: 32P (probe), unlabeled as competitor
T1 sequence (looked up, limits assumed): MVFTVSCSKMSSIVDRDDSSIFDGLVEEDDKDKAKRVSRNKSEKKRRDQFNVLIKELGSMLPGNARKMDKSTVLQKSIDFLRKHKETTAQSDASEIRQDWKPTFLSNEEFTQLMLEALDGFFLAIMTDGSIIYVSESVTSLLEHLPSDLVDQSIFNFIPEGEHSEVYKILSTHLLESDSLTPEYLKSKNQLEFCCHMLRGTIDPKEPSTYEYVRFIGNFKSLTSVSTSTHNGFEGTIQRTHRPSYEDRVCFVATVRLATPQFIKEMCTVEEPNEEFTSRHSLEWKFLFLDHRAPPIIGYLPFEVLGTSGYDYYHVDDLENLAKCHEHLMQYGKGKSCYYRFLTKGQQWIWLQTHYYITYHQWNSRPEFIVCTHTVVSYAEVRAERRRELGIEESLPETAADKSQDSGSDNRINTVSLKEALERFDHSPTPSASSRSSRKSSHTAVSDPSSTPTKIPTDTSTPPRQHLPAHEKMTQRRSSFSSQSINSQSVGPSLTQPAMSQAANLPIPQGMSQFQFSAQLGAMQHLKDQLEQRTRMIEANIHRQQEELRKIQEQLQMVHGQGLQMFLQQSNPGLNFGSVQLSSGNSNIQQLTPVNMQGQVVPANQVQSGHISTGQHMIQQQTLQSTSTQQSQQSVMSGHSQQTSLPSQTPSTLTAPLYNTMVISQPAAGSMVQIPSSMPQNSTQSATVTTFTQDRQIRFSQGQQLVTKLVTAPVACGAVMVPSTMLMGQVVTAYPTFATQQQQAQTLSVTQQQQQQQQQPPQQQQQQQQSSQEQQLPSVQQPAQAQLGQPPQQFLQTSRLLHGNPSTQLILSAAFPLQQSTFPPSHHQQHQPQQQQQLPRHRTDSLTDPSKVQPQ

[3] = system: BMAL1 (endogenous, mouse fibroblasts) + CLOCK (endogenous, mouse fibroblasts); experiment: competition with a labelled probe; details: 20 ug total cell extract, 32P-labeled duplex, room temperature 20 min, antibody 1 ug in 10 ul EMSA reaction buffer on ice 30 min for supershift, protein in an extract

“CGCGCAAAGCCATGTGCTTCCCCCT (double strand) [WT1 E-box probe]”: no binding [1]; no binding [2]; binds ([3]; 100-fold excess cold WT1, label: 32P (probe), unlabeled as competitor).
“GGGACACGTGACCC (double strand) [WT2 E-box]”: binds ([3]; 100-fold excess cold WT2).
“GGGACAGCTGACCC (double strand) [E-box mutant]”: no binding ([3]; 100-fold excess cold mutant, label: unlabeled competitor).

The exact form of at least one protein or probe is not confirmed. Where cells or extracts were used, other partners may take part. A negative result means that nothing was seen under these conditions. For some assays here: Protein sequences can lack the tags named with them.
